Experimental data as given in publication PMC7794802, “The Interactome of Cancer-Related Lysyl Oxidase and Lysyl Oxidase-Like Proteins” (Cancers, 2020).

Amino acid sequences for entries named in this document (tags omitted). A change or cut given only in a name is not applied to a line headed by its entry.
UniProt P39060: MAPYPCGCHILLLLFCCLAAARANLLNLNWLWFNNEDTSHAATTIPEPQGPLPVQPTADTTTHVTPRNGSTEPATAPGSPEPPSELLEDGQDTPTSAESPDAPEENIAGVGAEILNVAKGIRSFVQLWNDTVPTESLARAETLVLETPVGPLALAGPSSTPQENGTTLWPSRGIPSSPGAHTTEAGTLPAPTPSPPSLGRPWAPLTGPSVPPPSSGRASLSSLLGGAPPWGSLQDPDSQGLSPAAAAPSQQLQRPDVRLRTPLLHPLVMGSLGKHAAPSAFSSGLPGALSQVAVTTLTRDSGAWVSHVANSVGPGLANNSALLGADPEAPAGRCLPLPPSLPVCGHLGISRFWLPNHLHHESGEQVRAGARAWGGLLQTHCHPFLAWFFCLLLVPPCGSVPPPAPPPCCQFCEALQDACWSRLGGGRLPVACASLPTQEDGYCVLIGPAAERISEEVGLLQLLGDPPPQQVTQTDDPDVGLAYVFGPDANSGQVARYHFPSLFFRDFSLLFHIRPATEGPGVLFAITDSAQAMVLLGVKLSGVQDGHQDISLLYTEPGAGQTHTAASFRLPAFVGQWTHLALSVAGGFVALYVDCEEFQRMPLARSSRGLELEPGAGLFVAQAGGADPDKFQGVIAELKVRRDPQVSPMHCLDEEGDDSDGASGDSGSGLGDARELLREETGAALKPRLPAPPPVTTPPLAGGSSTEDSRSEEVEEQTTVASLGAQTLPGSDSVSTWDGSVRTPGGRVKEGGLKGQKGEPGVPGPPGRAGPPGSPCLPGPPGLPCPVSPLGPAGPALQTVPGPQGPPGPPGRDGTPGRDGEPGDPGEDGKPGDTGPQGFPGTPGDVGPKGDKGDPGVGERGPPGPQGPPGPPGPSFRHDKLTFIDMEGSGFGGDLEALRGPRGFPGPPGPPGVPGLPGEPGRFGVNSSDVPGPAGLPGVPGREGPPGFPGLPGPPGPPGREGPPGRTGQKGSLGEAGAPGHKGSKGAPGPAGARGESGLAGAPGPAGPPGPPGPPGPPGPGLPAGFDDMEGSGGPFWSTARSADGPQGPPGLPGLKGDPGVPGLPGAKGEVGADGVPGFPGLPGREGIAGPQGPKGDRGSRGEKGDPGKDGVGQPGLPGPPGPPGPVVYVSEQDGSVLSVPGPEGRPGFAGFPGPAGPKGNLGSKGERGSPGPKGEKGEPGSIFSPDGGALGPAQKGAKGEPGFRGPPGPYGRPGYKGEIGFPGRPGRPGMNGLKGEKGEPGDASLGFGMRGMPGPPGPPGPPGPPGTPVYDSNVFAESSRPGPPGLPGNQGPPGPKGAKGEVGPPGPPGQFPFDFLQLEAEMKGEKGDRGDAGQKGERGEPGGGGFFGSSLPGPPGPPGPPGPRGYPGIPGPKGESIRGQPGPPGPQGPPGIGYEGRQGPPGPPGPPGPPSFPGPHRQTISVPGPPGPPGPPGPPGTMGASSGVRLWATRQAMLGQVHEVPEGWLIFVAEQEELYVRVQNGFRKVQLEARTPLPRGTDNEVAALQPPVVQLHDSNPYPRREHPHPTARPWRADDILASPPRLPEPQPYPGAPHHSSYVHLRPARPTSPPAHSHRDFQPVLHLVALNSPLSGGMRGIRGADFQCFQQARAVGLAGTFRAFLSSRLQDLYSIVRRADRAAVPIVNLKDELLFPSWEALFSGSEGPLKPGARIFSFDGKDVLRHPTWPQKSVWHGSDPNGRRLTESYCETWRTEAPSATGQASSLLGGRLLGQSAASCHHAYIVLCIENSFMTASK
UniProt P09038: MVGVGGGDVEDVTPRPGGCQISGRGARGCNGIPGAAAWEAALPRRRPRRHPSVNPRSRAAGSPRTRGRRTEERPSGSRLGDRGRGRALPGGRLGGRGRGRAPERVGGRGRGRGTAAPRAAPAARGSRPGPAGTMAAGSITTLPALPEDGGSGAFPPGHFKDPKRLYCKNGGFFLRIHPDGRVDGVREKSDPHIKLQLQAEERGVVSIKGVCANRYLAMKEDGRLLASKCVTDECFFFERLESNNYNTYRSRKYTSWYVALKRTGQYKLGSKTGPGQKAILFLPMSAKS

Columns and labels:
[1] = target: C-terminal NC1 domain of collagen XVIII (UniProt P39060); assay: SPR; SPR imaging, BIAcore Flexchip; proteins spotted in triplicate (physically adsorbed) on Gold Affinity chips, blocked with buffer containing mammalian proteins; LOXL2, SRCR 1-2 and SRCR 1-4 (500 nM) recirculated over the arrays for 20 min; both purified
[2] = target: fibroblast growth factor-2 (FGF2) (UniProt P09038); assay: as above

- binding [1]: binds
Molecule: LOXL2 N-terminal scavenger receptor cysteine-rich domains SRCR 1-4 (residues 58-544) (from UniProt Q9Y4K0 58-544) (domain or fragment)

- binding [1]: binds
B1: LOXL2 N-terminal scavenger receptor cysteine-rich domains SRCR 1-2 (residues 58-302) (domain or fragment, UniProt Q9Y4K0 58-302, looked up)
chain: LRLAGQKRKHSEGRVEVYYDGQWGTVCDDDFSIHAAHVVCRELGYVEAKSWTASSSYGKGEGPIWLDNLHCTGNEATLAACTSNGWGVTDCKHTEDVGVVCSDKRIPGFKFDNSLINQIENLNIQVEDIRIRAILSTYRKRTPVMEGYVEVKEGKTWKQICDKHWTAKNSRVVCGMFGFPGERTYNTKVYKMFASRRKQRYWPFSMDCTGTEAHISSCKLGPQVSLDPMKNVTCENGLPAVVSCV
notes: LOXL2, SRCR domains 1-2, residues 58-302; also called SRCR 1-2 domain; source: expressed as recombinant protein as previously described [62]

- binding [1]: no binding (tested: 500 nM)
- binding [2]: binds
B2: lysyl oxidase-like 2 (LOXL2), full-length recombinant protein (enzyme, UniProt Q9Y4K0 26-774, looked up)
chain: QYDSWPHYPEYFQQPAPEYHQPQAPANVAKIQLRLAGQKRKHSEGRVEVYYDGQWGTVCDDDFSIHAAHVVCRELGYVEAKSWTASSSYGKGEGPIWLDNLHCTGNEATLAACTSNGWGVTDCKHTEDVGVVCSDKRIPGFKFDNSLINQIENLNIQVEDIRIRAILSTYRKRTPVMEGYVEVKEGKTWKQICDKHWTAKNSRVVCGMFGFPGERTYNTKVYKMFASRRKQRYWPFSMDCTGTEAHISSCKLGPQVSLDPMKNVTCENGLPAVVSCVPGQVFSPDGPSRFRKAYKPEQPLVRLRGGAYIGEGRVEVLKNGEWGTVCDDKWDLVSASVVCRELGFGSAKEAVTGSRLGQGIGPIHLNEIQCTGNEKSIIDCKFNAESQGCNHEEDAGVRCNTPAMGLQKKLRLNGGRNPYEGRVEVLVERNGSLVWGMVCGQNWGIVEAMVVCRQLGLGFASNAFQETWYWHGDVNSNKVVMSGVKCSGTELSLAHCRHDGEDVACPQGGVQYGAGVACSETAPDLVLNAEMVQQTTYLEDRPMFMLQCAMEENCLSASAAQTDPTTGYRRLLRFSSQIHNNGQSDFRPKNGRHAWIWHDCHRHYHSMEVFTHYDLLNLNGTKVAEGHKASFCLEDTECEGDIQKNYECANFGDQGITMGCWDMYRHDIDCQWVDITDVPPGDYLFQVVINPNFEVAESDYSNNIMKCRSRYDGHRIWMYNCHIGGSFSEETEKKFEHFSGLLNNQLSPQ
notes: lysyl oxidase-like 2 (LOXL2), full-length recombinant protein made in the laboratory; As a secreted recombinant protein it probably lacks its signal peptide (surmise); also called full-length LOXL2; soluble LOXL2; source: expressed as recombinant protein as previously described [62]

No constants are given. Whether binding was seen depends on the method and setting. A result given as binding can be weak or reduced; the word gives no strength. Each block holds one molecule with its values, some of them ahead of it.
